In assay [1] the target is T1, RANK-V5 (affinity-tagged full-length RANK) (UniProt Q9Y6Q6).
T1 sequence: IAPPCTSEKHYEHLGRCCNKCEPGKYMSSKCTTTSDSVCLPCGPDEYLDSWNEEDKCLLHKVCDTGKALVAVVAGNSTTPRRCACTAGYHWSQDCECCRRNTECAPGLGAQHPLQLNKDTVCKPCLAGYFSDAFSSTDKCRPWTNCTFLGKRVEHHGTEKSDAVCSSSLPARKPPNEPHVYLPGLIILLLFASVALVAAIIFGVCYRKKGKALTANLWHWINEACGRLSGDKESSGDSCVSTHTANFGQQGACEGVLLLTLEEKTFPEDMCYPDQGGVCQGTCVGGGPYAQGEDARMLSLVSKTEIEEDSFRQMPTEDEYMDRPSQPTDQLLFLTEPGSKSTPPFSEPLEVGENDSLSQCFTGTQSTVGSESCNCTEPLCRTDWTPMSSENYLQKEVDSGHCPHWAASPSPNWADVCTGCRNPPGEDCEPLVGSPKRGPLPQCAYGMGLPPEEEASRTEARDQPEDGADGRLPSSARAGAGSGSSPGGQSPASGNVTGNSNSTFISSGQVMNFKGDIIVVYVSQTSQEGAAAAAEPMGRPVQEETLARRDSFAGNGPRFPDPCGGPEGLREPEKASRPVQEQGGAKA
The assay is described as follows: co-IP; reverse IP: HEK293 cells transiently co-transfected with RANK-V5 and a HER2 form; IP of RANK-V5 with V5 antibody, protein A agarose; HER2 forms detected with 32H2 antibody.

Assay [2] has as its target FLAG-HER2 (affinity-tagged full-length HER2) (human) (UniProt P04626). Briefly: co-IP; HEK293 cells transiently co-transfected with RANK-V5 and a HER2 form; lysis in 20 mM Tris-HCl pH 7.4, 137 mM NaCl, 2 mM EDTA, 10% glycerol, 1% NP-40; IP of the HER2 form with anti-FLAG or anti-HA (control IgG), protein A agarose; RANK detected with V5 antibody.
For assay [3], the target named is endogenous HER2 (SKBR3 cells) (human (endogenous in SKBR3)) (UniProt P04626). Briefly: co-IP; endogenous proteins in SKBR3 cells; IP of HER2 with trastuzumab (Herceptin) or control IgG; RANK detected by Western blot.

We go through three molecules from publication PMC8008631.

These are yes or no findings as the source states them, for the method shown. Binding seen in cells or lysates may run through a third protein. Some binding calls cover weakened binding; strength is not graded here. For part of these data: Where a sequence is shown, tags or fusion partners need not be part of it.

As for “FLAG-HER2 (affinity-tagged full-length HER2) (from UniProt P04626 23-1255) (receptor)”, the binding result in assay [1] is given as “binds”.

B1: RANK-V5 (affinity-tagged full-length RANK) (receptor, UniProt Q9Y6Q6 30-616)
chain: IAPPCTSEKHYEHLGRCCNKCEPGKYMSSKCTTTSDSVCLPCGPDEYLDSWNEEDKCLLHKVCDTGKALVAVVAGNSTTPRRCACTAGYHWSQDCECCRRNTECAPGLGAQHPLQLNKDTVCKPCLAGYFSDAFSSTDKCRPWTNCTFLGKRVEHHGTEKSDAVCSSSLPARKPPNEPHVYLPGLIILLLFASVALVAAIIFGVCYRKKGKALTANLWHWINEACGRLSGDKESSGDSCVSTHTANFGQQGACEGVLLLTLEEKTFPEDMCYPDQGGVCQGTCVGGGPYAQGEDARMLSLVSKTEIEEDSFRQMPTEDEYMDRPSQPTDQLLFLTEPGSKSTPPFSEPLEVGENDSLSQCFTGTQSTVGSESCNCTEPLCRTDWTPMSSENYLQKEVDSGHCPHWAASPSPNWADVCTGCRNPPGEDCEPLVGSPKRGPLPQCAYGMGLPPEEEASRTEARDQPEDGADGRLPSSARAGAGSGSSPGGQSPASGNVTGNSNSTFISSGQVMNFKGDIIVVYVSQTSQEGAAAAAEPMGRPVQEETLARRDSFAGNGPRFPDPCGGPEGLREPEKASRPVQEQGGAKA
For the molecule B1, the binding entry in assay [2] is recorded as “binds”.

B2: endogenous RANK (SKBR3 cells) (receptor, UniProt Q9Y6Q6 30-616)
chain: IAPPCTSEKHYEHLGRCCNKCEPGKYMSSKCTTTSDSVCLPCGPDEYLDSWNEEDKCLLHKVCDTGKALVAVVAGNSTTPRRCACTAGYHWSQDCECCRRNTECAPGLGAQHPLQLNKDTVCKPCLAGYFSDAFSSTDKCRPWTNCTFLGKRVEHHGTEKSDAVCSSSLPARKPPNEPHVYLPGLIILLLFASVALVAAIIFGVCYRKKGKALTANLWHWINEACGRLSGDKESSGDSCVSTHTANFGQQGACEGVLLLTLEEKTFPEDMCYPDQGGVCQGTCVGGGPYAQGEDARMLSLVSKTEIEEDSFRQMPTEDEYMDRPSQPTDQLLFLTEPGSKSTPPFSEPLEVGENDSLSQCFTGTQSTVGSESCNCTEPLCRTDWTPMSSENYLQKEVDSGHCPHWAASPSPNWADVCTGCRNPPGEDCEPLVGSPKRGPLPQCAYGMGLPPEEEASRTEARDQPEDGADGRLPSSARAGAGSGSSPGGQSPASGNVTGNSNSTFISSGQVMNFKGDIIVVYVSQTSQEGAAAAAEPMGRPVQEETLARRDSFAGNGPRFPDPCGGPEGLREPEKASRPVQEQGGAKA
As for B2, the binding entry in assay [3] was “binds”.
